{"source": "the supplement of paper PMC5949888", "note": "Most values lie at the floor of the assay. Slopes are relative: functional sequences can read slightly below zero."}
{"system": "Saccharomyces cerevisiae PS128 hsf1 delta, HSF1(1-493) fusion", "assay": "growth estimate (transactivation domain function in HSF1 fusion, heat-shock survival) (a.u. (slope of normalised read count over time)); higher = stronger growth at 37°C, i.e. more transactivation activity", "settings": "library: random library"}
{"substance": "LALSAKA", "growth estimate": "< -0.25"}
{"substance": "LVSPGPSLTVEEDLFDRREQ", "growth estimate": "< -0.25"}
{"substance": "RILPGRKFDLGNAALGTGVH", "growth estimate": "< -0.25"}
{"substance": "TYCWV", "growth estimate": "< -0.25"}
{"substance": "GISNAQVKWS", "growth estimate": "< -0.25"}
{"substance": "SGCSCLLAHPLFRA", "growth estimate": "< -0.25"}
{"substance": "SEL", "growth estimate": "< -0.25"}
{"substance": "QRLSVANGYQLRQAILSRYS", "growth estimate": "< -0.25"}
{"substance": "PMQELSGCHGMGQSYCHPHR", "growth estimate": "< -0.25"}
{"substance": "ASTALLGTWSSESRR", "growth estimate": "< -0.25"}
{"substance": "RYARLLISCGGRVRGSGPSA", "growth estimate": "< -0.25"}
{"substance": "ASVARAIGDHF", "growth estimate": "< -0.25"}
{"substance": "ANLSLPLVVELVKEHF", "growth estimate": "< -0.25"}
{"substance": "LGHRSGKKRLSVSMFA", "growth estimate": "< -0.25"}
{"substance": "AVKTQAANTEREMKIVGLDR", "growth estimate": -0.247}
{"substance": "FWALNANT", "growth estimate": "< -0.25"}
{"substance": "SCAAFKGNALSVRSCRVENR", "growth estimate": "< -0.25"}
{"substance": "VCTCYSCPCVLAILSRHGSH", "growth estimate": "< -0.25"}
{"substance": "MIVLPWFITQASPTSQR", "growth estimate": "< -0.25"}
{"substance": "TLWLPGLVPAIERQSWYQAC", "growth estimate": "< -0.25"}
{"substance": "MVMSCSSHSTCQLTGAL", "growth estimate": "< -0.25"}
{"substance": "GLEYLDSCGWEGIR", "growth estimate": "< -0.25"}
{"substance": "RIQPT", "growth estimate": "< -0.25"}
{"substance": "CCSDGLADVKPNYSA", "growth estimate": "< -0.25"}
{"substance": "IAH", "growth estimate": "< -0.25"}
{"substance": "VRIP", "growth estimate": "< -0.25"}
{"substance": "TFVFAVRAPTTNMLRDRATE", "growth estimate": "< -0.25"}
{"substance": "HYWGLDVEDFD", "growth estimate": "< -0.25"}
{"substance": "WARSLYVPPGRCLYGGQVNL", "growth estimate": "< -0.25"}
{"substance": "IATCADAALAVANSTFVFCL", "growth estimate": "< -0.25"}
{"substance": "LVPCNNSLV", "growth estimate": "< -0.25"}
{"substance": "WIHGRRIRPIVKFSLRSVHK", "growth estimate": "< -0.25"}
{"substance": "PTRTAPSWNIVTGGRSILSP", "growth estimate": "< -0.25"}
{"substance": "VRGMHQRPLPSIVRTFVLVT", "growth estimate": "< -0.25"}
{"substance": "KVQRFLSLIGGTG", "growth estimate": "< -0.25"}
{"substance": "RLYM", "growth estimate": "< -0.25"}
{"substance": "TDYLRSRERGFQRLERSLRL", "growth estimate": "< -0.25"}
{"substance": "KHATECAHSLYWGYPVYPPI", "growth estimate": "< -0.25"}
{"substance": "GCLLRSSLCHMGSVLDERFC", "growth estimate": "< -0.25"}
{"substance": "VGFWTSSLTVVG", "growth estimate": "< -0.25"}
{"substance": "FGLIYERE", "growth estimate": "< -0.25"}
{"substance": "TPSTGHALVSASRCARGRDA", "growth estimate": "< -0.25"}
{"substance": "MEQPTNVIWKRAGLGLLHAI", "growth estimate": "< -0.25"}
{"substance": "VLPSFELPVAVLWPRVT", "growth estimate": "< -0.25"}
{"substance": "LHKCIHHAWYGALCG", "growth estimate": "< -0.25"}
{"substance": "QGCTNRRCADTFEVKAG", "growth estimate": "< -0.25"}
{"substance": "FTRCIILVTHPNMREGGRLE", "growth estimate": "< -0.25"}
{"substance": "LSY", "growth estimate": "< -0.25"}
{"substance": "IYACTEIYLRSPNGQFELPR", "growth estimate": "< -0.25"}
{"substance": "DVCEPKLYIRFDLTKLR", "growth estimate": "< -0.25"}
{"substance": "QLTGPRQYSVDLRAAVTWTS", "growth estimate": "< -0.25"}
{"substance": "GLEVLNCEGWSSCG", "growth estimate": "< -0.25"}
{"substance": "SDNSS", "growth estimate": "< -0.25"}
{"substance": "APNSPYAPSALGTAGMESHA", "growth estimate": "< -0.25"}
{"substance": "EDHSGDRTSGYELITHQQTY", "growth estimate": "< -0.25"}
{"substance": "YLAGRSGGPLQAMNAGCRKC", "growth estimate": "< -0.25"}
{"substance": "CCWTSRGPSPLLRIPKMVDK", "growth estimate": "< -0.25"}
{"substance": "SLSLHRISYAAR", "growth estimate": "< -0.25"}
{"substance": "SACNG", "growth estimate": "< -0.25"}
{"substance": "RRWFVIDLL", "growth estimate": "< -0.25"}
{"substance": "LVATWAPRRAMTPNGVVETN", "growth estimate": "< -0.25"}
{"substance": "EFLLMF", "growth estimate": "< -0.25"}
{"substance": "PRTINHFPQQVGYEEHSPGL", "growth estimate": "< -0.25"}
{"substance": "RWM", "growth estimate": "< -0.25"}
{"substance": "SRSGLRRSLMCKQKEIARQL", "growth estimate": "< -0.25"}
{"substance": "ASIAPTFVGCM", "growth estimate": "< -0.25"}
{"substance": "NSRRVSRR", "growth estimate": "< -0.25"}
{"substance": "FMVH", "growth estimate": "< -0.25"}
{"substance": "IEILGPTAVIALRVKNRKSS", "growth estimate": "< -0.25"}
{"substance": "ITREI", "growth estimate": "< -0.25"}
{"substance": "ARAHERRTTDLLWRCT", "growth estimate": "< -0.25"}
{"substance": "SQISQLAVIKNEYKIAATHW", "growth estimate": "< -0.25"}
{"substance": "RPIQCCTHII", "growth estimate": -0.179}
{"substance": "DGSHPCGVGTTFWDGPRR", "growth estimate": "< -0.25"}
{"substance": "LDEWDWRSKTSAFLSKGC", "growth estimate": "< -0.25"}
{"substance": "QEDNNSELRNWAGKGKPVVR", "growth estimate": "< -0.25"}
{"substance": "SRLTVRNQWASS", "growth estimate": "< -0.25"}
{"substance": "EQQLHRLYIKY", "growth estimate": "< -0.25"}
{"substance": "QDPPAAWCWAILWSTFATYV", "growth estimate": "< -0.25"}
{"substance": "NTICVSTGHASLGTLVSRLC", "growth estimate": "< -0.25"}
{"substance": "VHPRVYRDISTFAK", "growth estimate": "< -0.25"}
{"substance": "SPAFNSTAPGSDRGQWGWLF", "growth estimate": "< -0.25"}
{"substance": "TLVAY", "growth estimate": "< -0.25"}
{"substance": "HGSGDRSKQRPRRAGSNSDS", "growth estimate": "< -0.25"}
{"substance": "VAGYSGPRQRAVRGTPAGGT", "growth estimate": "< -0.25"}
{"substance": "GYGYLSGRPPLEQIL", "growth estimate": "< -0.25"}
{"substance": "GLSRKSYMSIALREGLRIVL", "growth estimate": "< -0.25"}
{"substance": "SGDVT", "growth estimate": "< -0.25"}
{"substance": "HLMSSANTIVAPVNMLTLGQ", "growth estimate": "< -0.25"}
{"substance": "LVRLPFLCGGNCFAAIVTCQ", "growth estimate": "< -0.25"}
{"substance": "VCGVK", "growth estimate": "< -0.25"}
{"substance": "ETYSFWT", "growth estimate": "< -0.25"}
{"substance": "ASVKYGEDRL", "growth estimate": "< -0.25"}
{"substance": "PSPNKSA", "growth estimate": "< -0.25"}
{"substance": "CRLWPFALE", "growth estimate": "< -0.25"}
{"substance": "VTTTDCGGAPIGSVDAVCSR", "growth estimate": "< -0.25"}
{"substance": "RPLNPGK", "growth estimate": -0.245}
{"substance": "GGERYVHVKTDC", "growth estimate": "< -0.25"}
{"substance": "TDHTIVRDHQLSGRSGQG", "growth estimate": "< -0.25"}
{"substance": "LLYAMRSLIHHADRRHARSR", "growth estimate": "< -0.25"}
{"substance": "REGEIRHLRPLNPCSA", "growth estimate": "< -0.25"}
{"substance": "CRGAYNEPQEFCLYSIFAIE", "growth estimate": "< -0.25"}
{"substance": "RFDS", "growth estimate": "< -0.25"}
{"substance": "RAVRKVRDWWSHLILQRLTS", "growth estimate": "< -0.25"}
{"substance": "VHGESRYHPTTRLEPES", "growth estimate": "< -0.25"}
{"substance": "KFLNRPPHVDLRIC", "growth estimate": "< -0.25"}
{"substance": "GTPSVYQYTLCSFESQSQFP", "growth estimate": -0.219}
{"substance": "LVRATRPDPFPTPPRRLRTN", "growth estimate": "< -0.25"}
{"substance": "TVEPRRR", "growth estimate": "< -0.25"}
{"substance": "LVPDLAYFRAGARPHNVSGA", "growth estimate": "< -0.25"}
{"substance": "ESVP", "growth estimate": "< -0.25"}
{"substance": "PLRPVDRKYPFQ", "growth estimate": "< -0.25"}
{"substance": "VHSLSQKYGPRGTIQYRNTP", "growth estimate": 0.0603}
{"substance": "GSHFT", "growth estimate": "< -0.25"}
{"substance": "GQWGIKSRLKSRY", "growth estimate": "< -0.25"}
{"substance": "GGTHIATKMC", "growth estimate": "< -0.25"}
{"substance": "RKCLV", "growth estimate": "< -0.25"}
{"substance": "SVSGEATFSSDVIAGRKIRM", "growth estimate": "< -0.25"}
{"substance": "VIRPGRVTRSSVTIKSPVTP", "growth estimate": "< -0.25"}
{"substance": "RPFYGTHLAVLAEWGPS", "growth estimate": "< -0.25"}
{"substance": "IADITFS", "growth estimate": "< -0.25"}
{"substance": "SGLRCFCVP", "growth estimate": "< -0.25"}
{"substance": "CGD", "growth estimate": "< -0.25"}
{"substance": "QCQVMCRVGLA", "growth estimate": "< -0.25"}
{"substance": "ASCGGQPILSGF", "growth estimate": "< -0.25"}
{"substance": "DRVLSSLSTELL", "growth estimate": -0.248}
{"substance": "KLLRTSELLSLDGYYSKTCE", "growth estimate": "< -0.25"}
{"substance": "SQID", "growth estimate": "< -0.25"}
{"substance": "TRDQ", "growth estimate": "< -0.25"}
{"substance": "SHQCGRQRGGEMHDQIYSVP", "growth estimate": "< -0.25"}
{"substance": "CTKVS", "growth estimate": "< -0.25"}
{"substance": "RLLTLVTRGDTSQSGDRRVA", "growth estimate": "< -0.25"}
{"substance": "EEDYQRWTGTLRSR", "growth estimate": "< -0.25"}
{"substance": "IHFVRRHQGHLRRGHVSFII", "growth estimate": -0.23}
{"substance": "RDSARKAVCMAVSYLRWSDQ", "growth estimate": "< -0.25"}
{"substance": "ICLLGVSCSLF", "growth estimate": -0.232}
{"substance": "DHFCSLTLQAIETTGSVSEH", "growth estimate": "< -0.25"}
{"substance": "CRAPYCC", "growth estimate": "< -0.25"}
{"substance": "DIVLGCNGYLPSTDYVFVLQ", "growth estimate": "< -0.25"}
{"substance": "VLPRVWRVSATGNPHRMVIR", "growth estimate": "< -0.25"}
{"substance": "QSYKAKLSVADFKLVRRSEC", "growth estimate": "< -0.25"}
{"substance": "VGLETQRPNLVRACCRVLHR", "growth estimate": "< -0.25"}
{"substance": "KSGKELGWIERMQKALSDHG", "growth estimate": "< -0.25"}
{"substance": "TLIVKRSGVF", "growth estimate": "< -0.25"}
{"substance": "DVPLRGCRYGRIMVVPGLPT", "growth estimate": "< -0.25"}
{"substance": "WGFFAVRL", "growth estimate": 0.0983}
{"substance": "VFGFCHVARKWGNPLVKFSR", "growth estimate": "< -0.25"}
{"substance": "HRLDLIRKMKTRLGSNVIHK", "growth estimate": "< -0.25"}
{"substance": "NPWGLHAWGPFHLQRVQCDL", "growth estimate": "< -0.25"}
{"substance": "SWGETITEAVGMGRGHGDRC", "growth estimate": "< -0.25"}
{"substance": "HTRSKGCGLTARRNASLVGS", "growth estimate": "< -0.25"}
{"substance": "FCSSEYKVQHSSGHGWNAVG", "growth estimate": "< -0.25"}
{"substance": "DRNPRRVSHSLRSHVCSLSP", "growth estimate": "< -0.25"}
{"substance": "RTWIDSFGEVSRSSRSIGQQ", "growth estimate": "< -0.25"}
{"substance": "ERAAR", "growth estimate": "< -0.25"}
{"substance": "TNEDGVIGGYPHTASRLLAF", "growth estimate": "< -0.25"}
{"substance": "PQPRFCPDLKCFCTPCKALR", "growth estimate": "< -0.25"}
{"substance": "MADLMRIRLGHGRQCDINEK", "growth estimate": "< -0.25"}
